Experimental data reported in the supplement of paper PMC7666118.
Some of the results follow.

Sequences of proteins named here, by UniProt entry; tags and fusion partners are left off. A change or cut given only in a name is not applied to a line headed by its entry.
UniProt Q9P0S2: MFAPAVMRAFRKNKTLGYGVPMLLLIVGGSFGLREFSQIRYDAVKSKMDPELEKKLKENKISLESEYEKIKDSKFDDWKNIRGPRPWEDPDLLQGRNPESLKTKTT
UniProt O43293: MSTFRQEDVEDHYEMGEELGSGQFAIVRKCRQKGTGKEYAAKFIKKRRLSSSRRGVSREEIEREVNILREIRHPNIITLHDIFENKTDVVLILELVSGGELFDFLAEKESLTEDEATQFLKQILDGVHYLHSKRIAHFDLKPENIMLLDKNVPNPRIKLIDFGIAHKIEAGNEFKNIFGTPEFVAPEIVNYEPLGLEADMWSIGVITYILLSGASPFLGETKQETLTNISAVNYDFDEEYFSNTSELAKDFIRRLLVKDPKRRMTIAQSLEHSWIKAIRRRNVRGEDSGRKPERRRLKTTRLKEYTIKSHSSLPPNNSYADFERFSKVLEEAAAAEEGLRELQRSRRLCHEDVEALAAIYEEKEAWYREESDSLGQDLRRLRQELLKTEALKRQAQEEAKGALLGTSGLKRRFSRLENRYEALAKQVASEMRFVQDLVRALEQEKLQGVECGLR
UniProt O75907: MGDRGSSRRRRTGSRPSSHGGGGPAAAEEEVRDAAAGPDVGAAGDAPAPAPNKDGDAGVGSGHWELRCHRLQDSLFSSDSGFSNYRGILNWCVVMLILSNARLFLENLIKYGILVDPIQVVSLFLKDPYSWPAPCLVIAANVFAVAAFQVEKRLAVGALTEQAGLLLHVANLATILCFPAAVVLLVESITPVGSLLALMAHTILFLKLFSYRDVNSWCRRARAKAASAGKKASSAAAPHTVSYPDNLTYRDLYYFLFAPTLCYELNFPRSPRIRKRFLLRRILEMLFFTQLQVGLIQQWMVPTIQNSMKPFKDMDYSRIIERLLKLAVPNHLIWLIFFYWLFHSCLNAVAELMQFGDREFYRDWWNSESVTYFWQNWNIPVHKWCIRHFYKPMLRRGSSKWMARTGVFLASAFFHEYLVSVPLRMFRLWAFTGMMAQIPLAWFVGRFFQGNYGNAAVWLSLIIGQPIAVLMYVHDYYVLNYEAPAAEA
UniProt Q7Z478: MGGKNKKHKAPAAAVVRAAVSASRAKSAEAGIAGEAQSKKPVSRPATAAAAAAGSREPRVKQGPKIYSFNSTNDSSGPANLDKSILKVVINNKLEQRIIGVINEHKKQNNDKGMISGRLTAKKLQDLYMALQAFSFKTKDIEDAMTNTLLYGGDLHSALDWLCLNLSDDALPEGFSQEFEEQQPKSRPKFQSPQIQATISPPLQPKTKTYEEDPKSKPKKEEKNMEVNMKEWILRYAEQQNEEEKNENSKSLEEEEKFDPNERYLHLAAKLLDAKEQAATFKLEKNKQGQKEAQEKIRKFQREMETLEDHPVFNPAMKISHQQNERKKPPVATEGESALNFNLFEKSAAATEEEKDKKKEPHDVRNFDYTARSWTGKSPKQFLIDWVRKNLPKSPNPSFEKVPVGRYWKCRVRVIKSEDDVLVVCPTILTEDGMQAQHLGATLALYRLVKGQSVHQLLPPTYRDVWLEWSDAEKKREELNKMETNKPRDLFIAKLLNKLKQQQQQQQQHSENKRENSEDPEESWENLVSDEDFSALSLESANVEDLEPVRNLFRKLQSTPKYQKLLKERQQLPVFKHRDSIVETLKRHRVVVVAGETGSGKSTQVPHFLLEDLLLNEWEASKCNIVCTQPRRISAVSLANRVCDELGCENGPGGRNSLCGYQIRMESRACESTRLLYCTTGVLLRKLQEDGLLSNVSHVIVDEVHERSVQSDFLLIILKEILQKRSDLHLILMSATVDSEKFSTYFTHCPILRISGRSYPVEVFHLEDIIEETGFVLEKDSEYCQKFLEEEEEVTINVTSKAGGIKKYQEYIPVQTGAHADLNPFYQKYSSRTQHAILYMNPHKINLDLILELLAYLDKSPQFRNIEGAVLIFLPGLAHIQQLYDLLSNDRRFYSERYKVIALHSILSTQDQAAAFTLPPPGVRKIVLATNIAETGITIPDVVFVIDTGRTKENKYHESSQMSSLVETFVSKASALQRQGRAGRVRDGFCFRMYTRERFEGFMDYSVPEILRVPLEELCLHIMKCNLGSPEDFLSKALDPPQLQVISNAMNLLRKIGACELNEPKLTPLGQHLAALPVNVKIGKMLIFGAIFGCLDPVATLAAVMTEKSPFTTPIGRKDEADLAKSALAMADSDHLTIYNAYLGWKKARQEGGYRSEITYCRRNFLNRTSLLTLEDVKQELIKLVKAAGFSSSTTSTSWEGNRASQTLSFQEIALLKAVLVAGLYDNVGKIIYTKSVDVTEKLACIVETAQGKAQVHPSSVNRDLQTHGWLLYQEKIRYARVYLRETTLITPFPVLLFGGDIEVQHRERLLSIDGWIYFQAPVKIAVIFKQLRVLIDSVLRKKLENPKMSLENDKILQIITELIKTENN
UniProt P33240: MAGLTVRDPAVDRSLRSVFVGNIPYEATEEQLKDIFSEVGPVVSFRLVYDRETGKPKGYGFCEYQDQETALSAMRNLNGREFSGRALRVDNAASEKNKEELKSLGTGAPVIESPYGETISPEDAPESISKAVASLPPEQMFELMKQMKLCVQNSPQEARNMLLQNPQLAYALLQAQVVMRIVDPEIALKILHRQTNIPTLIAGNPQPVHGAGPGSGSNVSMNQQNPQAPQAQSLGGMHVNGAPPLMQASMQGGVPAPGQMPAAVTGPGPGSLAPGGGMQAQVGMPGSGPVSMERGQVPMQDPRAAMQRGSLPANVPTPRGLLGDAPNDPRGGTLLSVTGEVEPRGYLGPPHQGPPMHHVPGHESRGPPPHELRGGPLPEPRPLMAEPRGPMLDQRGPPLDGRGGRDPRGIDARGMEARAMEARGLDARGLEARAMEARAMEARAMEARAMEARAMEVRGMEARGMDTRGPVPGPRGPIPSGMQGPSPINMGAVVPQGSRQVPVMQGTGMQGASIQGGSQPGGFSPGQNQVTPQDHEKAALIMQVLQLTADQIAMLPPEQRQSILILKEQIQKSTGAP
UniProt P57737: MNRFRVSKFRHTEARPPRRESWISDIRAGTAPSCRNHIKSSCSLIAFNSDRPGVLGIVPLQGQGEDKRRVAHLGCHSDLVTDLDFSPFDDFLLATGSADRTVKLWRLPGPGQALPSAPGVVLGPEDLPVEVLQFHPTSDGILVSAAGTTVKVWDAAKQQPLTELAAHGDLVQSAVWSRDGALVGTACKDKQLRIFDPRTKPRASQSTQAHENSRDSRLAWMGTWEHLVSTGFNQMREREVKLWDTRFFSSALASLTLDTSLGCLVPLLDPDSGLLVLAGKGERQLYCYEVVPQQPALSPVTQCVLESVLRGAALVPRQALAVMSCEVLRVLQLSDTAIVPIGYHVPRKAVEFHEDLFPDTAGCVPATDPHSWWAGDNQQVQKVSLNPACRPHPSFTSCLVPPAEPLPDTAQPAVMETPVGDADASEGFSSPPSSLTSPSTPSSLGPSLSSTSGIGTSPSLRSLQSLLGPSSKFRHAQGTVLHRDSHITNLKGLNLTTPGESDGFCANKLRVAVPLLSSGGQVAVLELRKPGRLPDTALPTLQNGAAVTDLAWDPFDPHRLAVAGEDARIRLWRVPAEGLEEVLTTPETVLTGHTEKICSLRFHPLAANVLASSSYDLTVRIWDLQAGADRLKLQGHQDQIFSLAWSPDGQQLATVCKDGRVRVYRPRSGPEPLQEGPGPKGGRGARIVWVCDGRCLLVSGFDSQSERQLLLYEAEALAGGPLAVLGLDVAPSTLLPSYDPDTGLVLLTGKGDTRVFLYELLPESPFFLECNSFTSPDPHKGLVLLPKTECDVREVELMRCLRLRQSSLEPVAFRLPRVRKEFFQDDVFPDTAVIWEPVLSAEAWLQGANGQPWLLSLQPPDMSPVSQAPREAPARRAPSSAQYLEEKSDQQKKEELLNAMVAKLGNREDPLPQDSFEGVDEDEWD
UniProt Q7L576: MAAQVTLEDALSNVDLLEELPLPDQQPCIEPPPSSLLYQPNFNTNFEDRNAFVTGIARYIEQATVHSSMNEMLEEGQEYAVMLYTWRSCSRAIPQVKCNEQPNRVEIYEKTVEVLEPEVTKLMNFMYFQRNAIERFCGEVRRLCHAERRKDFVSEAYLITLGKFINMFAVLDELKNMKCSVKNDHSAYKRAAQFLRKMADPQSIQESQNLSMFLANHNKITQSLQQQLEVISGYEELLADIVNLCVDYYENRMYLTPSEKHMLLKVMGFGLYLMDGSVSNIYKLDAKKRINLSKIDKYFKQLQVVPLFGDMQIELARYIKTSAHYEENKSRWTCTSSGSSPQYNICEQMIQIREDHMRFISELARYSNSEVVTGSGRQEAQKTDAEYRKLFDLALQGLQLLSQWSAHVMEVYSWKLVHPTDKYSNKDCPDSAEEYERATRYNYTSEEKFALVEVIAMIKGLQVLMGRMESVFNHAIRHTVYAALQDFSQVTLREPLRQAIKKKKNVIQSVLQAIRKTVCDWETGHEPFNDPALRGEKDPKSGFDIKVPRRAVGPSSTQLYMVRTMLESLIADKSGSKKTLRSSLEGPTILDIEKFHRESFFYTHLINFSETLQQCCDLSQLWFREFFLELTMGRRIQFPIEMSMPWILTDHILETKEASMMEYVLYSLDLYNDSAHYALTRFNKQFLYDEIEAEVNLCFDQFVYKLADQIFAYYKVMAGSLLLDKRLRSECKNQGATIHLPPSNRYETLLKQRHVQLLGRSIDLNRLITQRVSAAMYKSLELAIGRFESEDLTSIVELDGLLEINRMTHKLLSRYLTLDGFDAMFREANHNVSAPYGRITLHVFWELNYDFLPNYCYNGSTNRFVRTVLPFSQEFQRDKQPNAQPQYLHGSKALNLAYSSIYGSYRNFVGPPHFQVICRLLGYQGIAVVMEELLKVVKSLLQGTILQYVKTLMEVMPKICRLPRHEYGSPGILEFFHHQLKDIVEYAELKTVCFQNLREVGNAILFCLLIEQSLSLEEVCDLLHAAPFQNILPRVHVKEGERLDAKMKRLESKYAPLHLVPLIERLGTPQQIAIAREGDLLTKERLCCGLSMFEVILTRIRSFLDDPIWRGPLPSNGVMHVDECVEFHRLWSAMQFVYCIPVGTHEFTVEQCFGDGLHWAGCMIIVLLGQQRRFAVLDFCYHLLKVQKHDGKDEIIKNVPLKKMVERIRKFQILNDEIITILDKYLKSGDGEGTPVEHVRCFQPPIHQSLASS
UniProt P07339: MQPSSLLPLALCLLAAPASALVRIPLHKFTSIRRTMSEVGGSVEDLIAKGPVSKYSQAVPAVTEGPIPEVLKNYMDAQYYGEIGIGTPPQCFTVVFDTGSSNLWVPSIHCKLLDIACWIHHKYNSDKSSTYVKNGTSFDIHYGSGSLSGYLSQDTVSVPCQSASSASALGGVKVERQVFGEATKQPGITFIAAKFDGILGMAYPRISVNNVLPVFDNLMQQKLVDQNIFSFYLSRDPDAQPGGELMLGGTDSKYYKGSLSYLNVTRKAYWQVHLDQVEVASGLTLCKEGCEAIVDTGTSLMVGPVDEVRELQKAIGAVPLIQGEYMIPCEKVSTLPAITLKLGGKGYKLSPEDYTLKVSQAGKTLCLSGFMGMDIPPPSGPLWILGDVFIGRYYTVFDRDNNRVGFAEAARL
UniProt Q9UBR2: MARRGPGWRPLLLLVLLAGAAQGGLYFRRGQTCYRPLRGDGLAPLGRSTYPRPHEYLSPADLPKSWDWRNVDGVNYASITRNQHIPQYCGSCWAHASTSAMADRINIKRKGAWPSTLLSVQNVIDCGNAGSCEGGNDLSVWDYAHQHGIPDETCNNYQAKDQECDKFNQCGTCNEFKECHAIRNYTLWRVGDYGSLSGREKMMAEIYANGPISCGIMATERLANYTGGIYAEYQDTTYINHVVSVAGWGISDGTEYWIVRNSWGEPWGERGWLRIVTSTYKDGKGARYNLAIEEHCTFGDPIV
UniProt P36551: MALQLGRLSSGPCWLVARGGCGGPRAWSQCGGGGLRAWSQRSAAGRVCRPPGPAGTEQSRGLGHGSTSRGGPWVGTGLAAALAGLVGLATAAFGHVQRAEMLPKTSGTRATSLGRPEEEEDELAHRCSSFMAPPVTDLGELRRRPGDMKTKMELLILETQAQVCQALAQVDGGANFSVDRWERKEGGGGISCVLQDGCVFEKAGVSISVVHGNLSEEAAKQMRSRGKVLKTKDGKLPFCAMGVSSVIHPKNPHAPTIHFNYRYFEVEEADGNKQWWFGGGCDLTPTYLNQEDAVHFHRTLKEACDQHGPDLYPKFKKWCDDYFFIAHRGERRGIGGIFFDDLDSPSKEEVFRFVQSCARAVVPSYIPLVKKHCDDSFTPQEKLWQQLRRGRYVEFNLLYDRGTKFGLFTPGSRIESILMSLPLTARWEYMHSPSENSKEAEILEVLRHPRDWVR
UniProt Q9BVG4: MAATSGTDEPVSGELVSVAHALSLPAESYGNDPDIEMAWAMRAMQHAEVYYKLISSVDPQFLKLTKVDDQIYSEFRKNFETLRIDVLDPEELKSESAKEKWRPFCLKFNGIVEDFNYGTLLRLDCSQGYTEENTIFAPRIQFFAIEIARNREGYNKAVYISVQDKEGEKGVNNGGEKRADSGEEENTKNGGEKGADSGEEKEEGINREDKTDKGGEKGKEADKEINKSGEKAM

Compound: COc1ccc(Cn2ccc3ccc(C(=O)NO)cc32)cc1
Assay: dose-dependent thermal stabilisation call (2D-TPP, DLPTP, 10% FDR) (binary (1 = stabilised)); higher = stabilised by the compound
Details: system: HL-60 intact cells; concentration range 0.04-10 µM

Target | dose-dependent thermal stabilisation call
DDX52 (UniProt Q9Y2R4) | inactive: 0
CS (UniProt O75390) | inactive: 0
CXXC1 (UniProt Q9P0U4) | inactive: 0
COX16 (UniProt Q9P0S2) | inactive: 0
DAK (UniProt Q3LXA3) | inactive: 0
DAPK3 (UniProt O43293) | inactive: 0
DCP2 (UniProt Q8IU60) | inactive: 0
CTSS (UniProt P25774) | inactive: 0
CSNK1G2 (UniProt P78368) | inactive: 0
DGAT1 (UniProt O75907) | inactive: 0
DHX35 (UniProt Q9H5Z1) | inactive: 0
DHX32 (UniProt Q7L7V1) | inactive: 0
DCP1A (UniProt Q9NPI6) | inactive: 0
CP110 (UniProt O43303) | inactive: 0
DCK (UniProt P27707) | inactive: 0
DDX21 (UniProt Q9NR30) | inactive: 0
DENR (UniProt O43583) | inactive: 0
DHX29 (UniProt Q7Z478) | inactive: 0
COPS3 (UniProt Q9UNS2) | inactive: 0

Pulled one by one from the entries so far:
Target | dose-dependent thermal stabilisation call
COX16 (UniProt Q9P0S2) | inactive: 0
DAPK3 (UniProt O43293) | inactive: 0
DCP1A (UniProt Q9NPI6) | inactive: 0

Next results

Target | dose-dependent thermal stabilisation call
CTPS (UniProt P17812) | inactive: 0
DDX47 (UniProt Q9H0S4) | inactive: 0
CSTF2 (UniProt P33240) | inactive: 0
CRK (UniProt P46108) | inactive: 0
CORO7 (UniProt P57737) | inactive: 0
CYFIP1 (UniProt Q7L576) | inactive: 0
DCD (UniProt P81605) | inactive: 0
CTBP2 (UniProt P56545) | inactive: 0
CTSD (UniProt P07339) | inactive: 0
CSGALNACT2 (UniProt Q8N6G5) | inactive: 0
COX6A1 (UniProt P12074) | active: 1
CTSZ (UniProt Q9UBR2) | inactive: 0
DDOST (UniProt P39656) | inactive: 0
CPOX (UniProt P36551) | active: 1
DENND1B (UniProt Q6P3S1) | inactive: 0
COX5A (UniProt P20674) | inactive: 0
CPT2 (UniProt P23786) | inactive: 0
CXORF26 (UniProt Q9BVG4) | inactive: 0
DACH1 (UniProt Q9UI36) | inactive: 0
